At least one structure is not confirmed: it was looked up by name or label, or the drawing left a doubt.
Test system: mushroom bodies (Kenyon cells) of Drosophila adult brain
Test: Aequorin luminometry of endogenous intracellular calcium oscillation in intact Drosophila brain (GAL4-aeq lines)
Type: cell-based
Conditions: 1 μM

Structure (SMILES): COc1ccc(C(=O)O[C@H]2CC[C@@]3(C)[C@@H]4CC[C@H]5[C@]6(O)C[C@H](O)[C@@]7(O)[C@@H](CN8C[C@@H](C)CC[C@H]8[C@@]7(C)O)[C@]6(O)C[C@@]53O[C@]24O)cc1OC [Veratridine]
- Effect on base-line calcium concentration: sustained elevation of base-line calcium concentration
- Effect on oscillation: Oscillation is eliminated

— US7038106B1, “Detection of neural activity” (The University Court of the University of Glasgow, priority 1998, dated 2006)
